From PMC11597393 come the findings set out here.

The chains behind the UniProt entries cited, without tags or fusion partners. Residues count along the entry.
UniProt Q9QUK6, residues 26-835: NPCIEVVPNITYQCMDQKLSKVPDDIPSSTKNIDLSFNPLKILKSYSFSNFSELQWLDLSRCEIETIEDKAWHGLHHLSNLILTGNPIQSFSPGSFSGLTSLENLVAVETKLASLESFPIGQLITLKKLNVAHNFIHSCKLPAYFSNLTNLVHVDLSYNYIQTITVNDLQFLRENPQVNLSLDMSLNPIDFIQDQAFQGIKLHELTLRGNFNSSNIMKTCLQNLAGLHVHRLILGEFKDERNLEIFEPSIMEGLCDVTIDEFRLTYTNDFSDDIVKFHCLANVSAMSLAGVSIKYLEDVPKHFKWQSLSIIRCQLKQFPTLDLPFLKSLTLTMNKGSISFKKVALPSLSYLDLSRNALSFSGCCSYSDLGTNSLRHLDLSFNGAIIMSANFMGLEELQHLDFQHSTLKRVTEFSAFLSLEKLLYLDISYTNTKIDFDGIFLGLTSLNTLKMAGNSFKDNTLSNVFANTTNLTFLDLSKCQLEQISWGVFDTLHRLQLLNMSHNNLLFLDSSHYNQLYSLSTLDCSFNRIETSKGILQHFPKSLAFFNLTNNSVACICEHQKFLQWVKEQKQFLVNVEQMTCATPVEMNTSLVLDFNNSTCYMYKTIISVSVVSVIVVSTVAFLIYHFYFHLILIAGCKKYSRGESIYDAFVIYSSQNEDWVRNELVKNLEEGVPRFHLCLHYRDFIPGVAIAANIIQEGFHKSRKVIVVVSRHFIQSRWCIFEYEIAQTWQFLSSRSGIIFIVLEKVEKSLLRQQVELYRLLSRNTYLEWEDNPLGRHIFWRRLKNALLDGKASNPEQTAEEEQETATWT
UniProt P22366: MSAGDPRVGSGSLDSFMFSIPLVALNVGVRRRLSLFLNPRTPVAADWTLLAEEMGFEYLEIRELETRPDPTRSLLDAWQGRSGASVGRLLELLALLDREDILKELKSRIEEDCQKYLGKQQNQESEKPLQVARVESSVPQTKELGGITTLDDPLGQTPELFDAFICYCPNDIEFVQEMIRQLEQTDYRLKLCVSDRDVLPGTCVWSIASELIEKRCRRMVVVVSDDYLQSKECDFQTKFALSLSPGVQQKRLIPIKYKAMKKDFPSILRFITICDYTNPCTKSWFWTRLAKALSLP

The target of this assay is Toll-like receptor 4 (mouse (endogenous in RAW 264.7)) (UniProt Q9QUK6). Put plainly: co-IP; lysates of RAW 264.7 cells exposed to LPS and/or EPS-LM (50 and 200 µg/mL) for 24 h; anti-TLR4 antibody on Protein A+G magnetic beads, overnight at 4 °C; MyD88 and TLR4 detected by immunoblot. Background: In western blotting, separated proteins are transferred to a membrane and probed.

Results are given in words; binding and its absence hold for the method and conditions named. In cells and extracts the contact can be indirect. Some entries that bind do so weakly or less than the wild type.

For the substance “myeloid differentiation primary response gene 88 (from UniProt P22366 1-296)”, the binding result is “binds”.
